Assay results as given in patent US20200392244A1.
These are yes or no findings as the source states them, for the method shown. Some results given as binding are weak or reduced against the parent protein; the word gives no strength.

Experiments:
[1] = target: cynomolgus PSMA on CHO cells (cynomolgus); experiment: FMAT screen, Cyno PSMA CHO cells
[2] = target: cynomolgus PSMA on CHO cells (cynomolgus); experiment: FMAT Mirrorball direct cell binding of purified His-tagged VH (anti-His + Alexa Fluor-488 anti-mouse) on CHO cells expressing cynomolgus PSMA [panel cynoPSMA-CHO binding]

Row | binding [1] | binding [2] | Binder
1 | binds | – | single VH domain antibody 6.1 (VHH) VHH: QVQLQESGPGLVKPSQTLSLTCTVSGGSISNSGYYWSWVRQHPGKDLEWIGFIYYNGSIHYNPSLKSRVIISVDTSKNQFSLKMNSVTAADTAVYYCARDGDDYGDYLRGQGTLVTVSS
2 | binds | – | single VH domain antibody 4.1 (VHH) VHH: QVQLVESGGGVVQPGRSLRLSCVASGFPFISYGMHWVRQAPGKGREWVAVISYDGSNRYYADSVKGRFTISRDNSKNTLYLQMNSLRPEDTAVYYCAKERIFGVLTPDDFDIWGQGTTVTVSS
3 | binds | – | single VH domain antibody 5.1 (VHH) VHH: QVQLVESGGGVVQPGRSLRLSCAASGFTFNNYGMHWVRQAPGKGLEWVAIISYDGNTKYYTDSVKGRFTISRDNSKNTLYLQMNSLRVEDTAVYYCAKGLWPSDVWGQGTTVTVSS
4 | – | binds | 2.10 (VHH) VHH: EVQLVESGGGVVQPGRSLRLSCAASGFTFSGYGMHWVRQAPGKGLEWVAYISYDGSNRYYADSVKGRFTISRDNSKKTLSLQMNSLRAEDTAVYYCAKDPAWGLRLGESSSYDFDIWGQGTMVTVSS
